Source: paper PMC6271157
A negative result means that nothing was seen under these conditions.

Sequences of proteins named here, by UniProt entry; tags and fusion partners are left off. A change or cut given only in a name is not applied to a line headed by its entry. Residues count along the entry.
UniProt P02769, 25-607: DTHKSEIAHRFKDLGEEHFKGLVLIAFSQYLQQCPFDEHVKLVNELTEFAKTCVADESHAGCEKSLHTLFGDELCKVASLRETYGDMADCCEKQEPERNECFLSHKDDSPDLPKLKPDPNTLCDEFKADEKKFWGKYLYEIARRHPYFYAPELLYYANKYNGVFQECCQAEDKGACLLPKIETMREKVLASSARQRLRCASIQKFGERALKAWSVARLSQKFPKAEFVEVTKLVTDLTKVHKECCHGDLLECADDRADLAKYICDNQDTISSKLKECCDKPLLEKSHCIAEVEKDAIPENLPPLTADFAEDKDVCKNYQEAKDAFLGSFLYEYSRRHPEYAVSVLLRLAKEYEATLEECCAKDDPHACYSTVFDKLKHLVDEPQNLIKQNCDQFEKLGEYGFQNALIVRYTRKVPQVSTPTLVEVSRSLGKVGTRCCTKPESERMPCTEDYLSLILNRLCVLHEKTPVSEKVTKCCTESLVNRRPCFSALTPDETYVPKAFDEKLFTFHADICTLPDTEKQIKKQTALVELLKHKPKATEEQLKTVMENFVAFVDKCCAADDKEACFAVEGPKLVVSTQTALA
UniProt P22629: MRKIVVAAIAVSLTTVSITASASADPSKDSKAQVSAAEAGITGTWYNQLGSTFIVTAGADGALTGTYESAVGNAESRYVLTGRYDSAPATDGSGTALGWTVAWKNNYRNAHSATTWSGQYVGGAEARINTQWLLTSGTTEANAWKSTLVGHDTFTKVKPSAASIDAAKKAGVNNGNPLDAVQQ

Tests used:
[1] = molecular target: bovine serum albumin (BSA) (bovine) (UniProt P02769); assay: ELONA; settings: 5'-biotin (ELONA); 8 mM Na2HPO4, 2 mM NaH2PO4, 2.7 mM KCl, 137 mM NaCl, 4 mM MgCl2, pH 7.4, room temperature, 2 h; wells coated with 10 nM AChE, blocked with 1% BSA; commercial protein; label: 5'-biotin, detected by streptavidin-HRP; single-stranded DNA
streptavidin = streptavidin (UniProt P22629); assay: ELONA; settings: 5'-biotin (ELONA); 8 mM Na2HPO4, 2 mM NaH2PO4, 2.7 mM KCl, 137 mM NaCl, 4 mM MgCl2, pH 7.4, room temperature, 2 h; wells coated with 10 nM AChE, blocked with 1% BSA; commercial protein; label: 5'-biotin, detected by streptavidin-HRP; single-stranded DNA

AAGCATCCGCTGGTTGACTGTAGCTCTGGCAGACGTAGTGTGAAGGTACCAGCTATTGGGATCTTGGACCCTGCGAA [R15/19 (also R15/C19)]
binding result [1]: no binding | binding result (streptavidin): no binding
